Data: patent US20190119729A1, “METHOD OF DETECTING AND TREATING P. ACNES AND KIT THEREOF” (priority 2016, published 2019)
At least one structure is not confirmed: it was looked up by name or label, or the drawing left a doubt.

Assays:
P. acnes isolates = test: Antimicrobial susceptibility patterns of P. acnes isolates against different antibiotics (Table 1); type: cell-based; conditions: Table 1 isolates
Source text: Table 1 below depicts the antimicrobial susceptibility patterns of P. acnes isolates against different antibiotics: […]

[1] = test system: P. acnes clinical isolates (clindamycin resistant); test: Antimicrobial susceptibility of clindamycin resistant P. acnes clinical isolates against various antibiotics (Table 2); type: cell-based; conditions: all the clindamycin, erythromycin resistant strains of Table 2
Source text: Various clinical isolates are obtained from patients carrying Clindamycin Resistant P. acnes and their antimicrobial susceptibility to fluoroquinolone antibiotics is studied vis-à-vis susceptibility to Clindamycin and Erythromycin.

Row | Structure (SMILES) | resistance of strains having the A2059G mutation compared to strains having the A2058G mutation (P. acnes isolates) | susceptibility of the strains as indicated by MIC values [1]
1 | CCC[C@@H]1C[C@@H](C(=O)N[C@@H]([C@H]2O[C@H](SC)[C@H](O)[C@@H](O)[C@H]2O)[C@H](C)Cl)N(C)C1 [Clindamycin, clindamycin] | less resistant | –
2 | C[C@H]1COc2c(N3CCN(C)CC3)c(F)cc3c(=O)c(C(=O)O)cn1c23 [Levofloxacin, levofloxacin] | – | susceptible
